Some entries share one result that the patent states for a list of compounds.
Assay: Time to peak blood concentration and uptake rate after pulmonary delivery (general statements)
Details: complexed/formulated with fumaryl diketopiperazine

## C[C@@H](O)[C@@H]1NC(=O)[C@H](CCCCN)NC(=O)[C@@H](Cc2c[nH]c3ccccc23)NC(=O)[C@H](Cc2ccccc2)NC(=O)[C@@H](NC(=O)[C@H](N)Cc2ccccc2)CSSC[C@@H](C(=O)N[C@H](CO)[C@@H](C)O)NC1=O [octreotide]
  Time to peak blood concentrations: 3 to 10 min
